Laboratory results taken from publication PMC2657825.
These are yes or no findings as the source states them, for the method shown. Binding seen in cells or lysates may run through a third protein. Some binding calls cover weakened binding; strength is not graded here.

By UniProt entry, the sequences of proteins in these tests, tags left out.
UniProt P07355: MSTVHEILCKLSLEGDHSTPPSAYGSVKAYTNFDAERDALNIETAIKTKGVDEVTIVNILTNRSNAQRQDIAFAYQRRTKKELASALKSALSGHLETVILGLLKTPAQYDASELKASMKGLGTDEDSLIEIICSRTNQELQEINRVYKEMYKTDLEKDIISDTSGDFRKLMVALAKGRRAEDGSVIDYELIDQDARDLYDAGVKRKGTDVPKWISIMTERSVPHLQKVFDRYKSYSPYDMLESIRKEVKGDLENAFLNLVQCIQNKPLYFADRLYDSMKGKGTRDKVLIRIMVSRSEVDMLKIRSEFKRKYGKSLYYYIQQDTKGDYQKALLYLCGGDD
UniProt P60903: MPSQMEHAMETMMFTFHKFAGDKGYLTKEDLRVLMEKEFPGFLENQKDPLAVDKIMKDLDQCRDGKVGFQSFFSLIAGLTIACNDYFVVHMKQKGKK

Target: Anx2C-FR1 (Annexin 2 fused to fragment 1 of YFP, Anx2 at the C-terminus of the construct) (UniProt P07355)
Assay: split reporter; YFP fragment fusions cotransfected into 293T cells (with empty vector or Arf6/Q67L), fixed 36 h after transfection, DAPI, confocal microscopy

Substance: p11N-FR2 (p11 fused to fragment 2 of YFP) (from UniProt P60903 1-97)
- binding: binds
